Experimental data reported in patent US12648964B2, “Chimeric Tim receptors and uses thereof” (CERO THERAPEUTICS HOLDINGS, INC., priority 2020, dated 2026).

Test system: transduced CER T cells
Test: Cell surface chimeric Tim4 receptor expression on transduced T cells (anti-Tim-4 antibody 9F4, flow cytometry)
Assay type: cell-based
Conditions: vs mock transduced controls

Molecule	Tim4 expression on transduced cells
pCTX247: Tim4 binding domain-CD28 transmembrane-CD28 signaling domain-CD3z signaling domain (protein) ETVVTEVLGHRVTLPCLYSSWSHNSNSMCWGKDQCPYSGCKEALIRTDGMRVTSRKSAKYRLQGTIPRGDVSLTILNPSESDSGVYCCRIEVPGWFNDVKINVRLNLQRASTTTHRTATTTTRRTTTTSPTTTRQMTTTPAALPTTVVTTPDLTTGTPLQMTTIAVFTTANTCLSLTPSTLPEEATGLLTPEPSKEGPILTAESETVLPSDSWSSVESTSADTVLLTSKESKVWDLPSTSHVSMWKTSDSVSSPQPGASDTAVPEQNKTTKTGQMDGIPMSMKNEMPISQFWVLVVVGGVLACYSLLVTVAFIIFWVRSKRSRLLHSDYMNMTPRRPGPTRKHYQPYAPPRDFAAYRSRVKFSRSADAPAYQQGQNQLYNELNLGRREEYDVLDKRRGRDPEMGGKPRRKNPQEGLYNELQKDKMAEAYSEIGMKGERRRGKGHDGLYQGLSTATKDTYDALHMQALPPR	Tim4 expression was observed
pCTX1107: Tim4 binding domain-CD28 signaling domain-CD3z signaling domain-TLR2 signaling domain (protein, left off: large carriers) ETVVTEVLGHRVTLPCLYSSWSHNSNSMCWGKDQCPYSGCKEALIRTDGMRVTSRKSAKYRLQGTIPRGDVSLTILNPSESDSGVYCCRIEVPGWFNDVKINVRLNLQRASTTTHRTATTTTRRTTTTSPTTTRQMTTTPAALPTTVVTTPDLTTGTPLQMTTIAVFTTANTCLSLTPSTLPEEATGLLTPEPSKEGPILTAESETVLPSDSWSSVESTSADTVLLTSKESKVWDLPSTSHVSMWKTSDSVSSPQPGASDTAVPEQNKTTKTGQMDGIPMSMKNEMPISQRSKRSRLLHSDYMNMTPRRPGPTRKHYQPYAPPRDFAAYRSRVKFSRSADAPAYQQGQNQLYNELNLGRREEYDVLDKRRGRDPEMGGKPRRKNPQEGLYNELQKDKMAEAYSEIGMKGERRRGKGHDGLYQGLSTATKDTYDALHMQALPPRHRFHGLWYMKMMWAWLQAKRKPRKAPSRNICYDAFVSYSERDAYWVENLMVQELENFNPPFKLCLHKRDFIPGKWIIDNIIDSIEKSHKTVFVLSENFVKSEWCKYELDFSHFRLFDENNDAAILILLEPIEKKAIPQRFCKLRKIMNTKTYLEWPMDEAQREGFWVNLRAAIKS	Tim4 expression was observed
